Values from PubChem BioAssay AID652243 (Drosophila RNAi Screening Center, 2013)
In all, the deposit lists about 24,000 reagents; this is a random part of those that have a named target and a result. Over the whole deposit, 246 (1%) were called active. 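Plates not normalised; calls are printed but the firefly/Renilla ratio behind them is not deposited; fold cut for lowering reported inconsistently.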 Raw values vary from plate to plate and are shown uncorrected. The record does not give: the amount of reagent.

- Screen: 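Fly regulators of androgen-dependent reporter output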 (primary screen)
- System: Drosophila S2R+ cells
- Knock-down reagent: long dsRNA against Drosophila genes
- Time to read-out: 72 h (48 h, then 24 h hormone)
- Challenge: synthetic androgen R1881 at 10 nM for 24 h
- Read-out: 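Per-well raw luminescence of the androgen-driven firefly reporter and of the Renilla control, two replicates each, without normalisation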
- Direction: firefly reporter light: higher = more light from androgen-responsive reporter; Renilla control light: higher = more constitutive control signal (cell number, transfection)
- Active means: 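Hit when the log firefly-to-Renilla ratio dropped or increased by a fixed fold versus the mean of GFP or LacZ controls across duplicate plates; lowering cut given as 1.5 and as 3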
- Meaning of the calls: active = hit: reporter lowered or raised; inactive = no hit

{"predicted target": "CG12129", "dsRNA": "DRSC06105", "firefly reporter light, replicate 1": 1.34e6, "firefly reporter light, replicate 2": 1.30e6, "Renilla control light, replicate 1": 1.66e6, "Renilla control light, replicate 2": 1.51e6, "Outcome": "inactive"}
{"predicted target": "CG4022", "dsRNA": "DRSC10395", "firefly reporter light, replicate 1": 1.64e5, "firefly reporter light, replicate 2": 1.00e5, "Renilla control light, replicate 1": 2.80e6, "Renilla control light, replicate 2": 2.14e6, "Outcome": "inactive"}
{"predicted target": "CG4022", "dsRNA": "DRSC27317", "firefly reporter light, replicate 1": 3.12e5, "firefly reporter light, replicate 2": 3.16e5, "Renilla control light, replicate 1": 5.96e5, "Renilla control light, replicate 2": 6.94e5, "Outcome": "inactive"}
{"predicted target": "CG14440", "dsRNA": "DRSC23008", "firefly reporter light, replicate 1": 7.65e5, "firefly reporter light, replicate 2": 9.65e5, "Renilla control light, replicate 1": 1.14e6, "Renilla control light, replicate 2": 1.50e6, "Outcome": "inactive"}
{"predicted target": "CG14440", "dsRNA": "DRSC23009", "firefly reporter light, replicate 1": 4.87e5, "firefly reporter light, replicate 2": 8.10e5, "Renilla control light, replicate 1": 9.70e5, "Renilla control light, replicate 2": 1.28e6, "Outcome": "inactive"}
{"predicted target": "CG14440", "dsRNA": "DRSC25806", "firefly reporter light, replicate 1": 3.16e5, "firefly reporter light, replicate 2": 4.06e5, "Renilla control light, replicate 1": 8.38e5, "Renilla control light, replicate 2": 6.27e5, "Outcome": "inactive"}
{"predicted target": "Trmt61", "dsRNA": "DRSC14888", "firefly reporter light, replicate 1": 1.27e5, "firefly reporter light, replicate 2": 1.28e5, "Renilla control light, replicate 1": 1.70e6, "Renilla control light, replicate 2": 2.14e6, "Outcome": "inactive"}
{"predicted target": "S-Lap3", "dsRNA": "DRSC10956", "firefly reporter light, replicate 1": 5.88e5, "firefly reporter light, replicate 2": 6.07e5, "Renilla control light, replicate 1": 5.48e5, "Renilla control light, replicate 2": 5.81e5, "Outcome": "inactive"}
{"predicted target": "S-Lap3", "dsRNA": "DRSC23958", "firefly reporter light, replicate 1": 5.41e5, "firefly reporter light, replicate 2": 3.37e5, "Renilla control light, replicate 1": 7.36e5, "Renilla control light, replicate 2": 6.77e5, "Outcome": "inactive"}
{"predicted target": "mRpL34", "dsRNA": "DRSC38732", "firefly reporter light, replicate 1": 6.13e5, "firefly reporter light, replicate 2": 4.83e5, "Renilla control light, replicate 1": 1.36e6, "Renilla control light, replicate 2": 1.53e6, "Outcome": "inactive"}
{"predicted target": "lawc", "dsRNA": "DRSC23208", "firefly reporter light, replicate 1": 7.59e5, "firefly reporter light, replicate 2": 6.95e5, "Renilla control light, replicate 1": 2.07e6, "Renilla control light, replicate 2": 1.70e6, "Outcome": "inactive"}
{"predicted target": "BomT3", "dsRNA": "DRSC15871", "firefly reporter light, replicate 1": 2.71e5, "firefly reporter light, replicate 2": 2.80e5, "Renilla control light, replicate 1": 2.40e6, "Renilla control light, replicate 2": 3.44e6, "Outcome": "inactive"}
{"predicted target": "BomT3", "dsRNA": "DRSC25578", "firefly reporter light, replicate 1": 6.68e5, "firefly reporter light, replicate 2": 7.57e5, "Renilla control light, replicate 1": 6.58e5, "Renilla control light, replicate 2": 7.26e5, "Outcome": "inactive"}
